Among all 31,000 sequences or so, about 1,400 (4.5%) were called active.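 Rule for the calls: active = median seed-adjusted z-score above 1 or below -1; inactive = the rest.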 The list shows a part of the results.

A short description of the assay: Novel Modifiers of Survival Motor Neuron (SMN) Protein: Gene Identification via Genome-wide siRNA Screen.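 Note: luminescence tracks full-length SMN protein made from the SMN2 reporter.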 Conditions: HEK293T SMN2-luciferase reporter, siRNA knockdown, 72 h; actives lie on both sides. Summed up:
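Steps: spot 1 pmol siRNA, add Lipofectamine RNAiMax in serum-free DMEM, seed HEK293T SMN2–luciferase reporter cells; incubate 72 h at 37 °C; add ONE-Glo; normalize luminescence to control siRNA, log10, MAD. Candidates: |MAD| > 1.0.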
On the technique in general: In a reporter assay the amount or activity of a reporter protein is the signal.
GAUUUUCAAGGGAAUGACATT against KLRC1: the median seed-adjusted z-score is inactive: 0.171. Next, GCUCAGGAAUGUUAGACGATT against ATXN3: inactive: 0.04; GGUAGUCCAUGGACAUUAATT against ANGPTL3: inactive: 0.117. The same measure for GGGUACAUCUCUUCUGCUATT against KRT36: inactive: 0.766. Next, GACCAAGGCUAAAACGAAUTT against ARHGAP29: inactive: -0.0483. For GGCUCCAUCGUGUCGAAAATT against KIF18A, the median seed-adjusted z-score was inactive: -0.159.

Consider GGAUAUAGACGAUGACCUATT against SCNN1G, for which the median seed-adjusted z-score was inactive: -0.616.

GCGGUGUUCUCCAUCCUGATT against MRGPRF: the median seed-adjusted z-score is inactive: -0.654. The same measure for GGAAGUACAUCAUGUCAGATT against TSHZ3: inactive: 0.301; for CUUGUCAAGUACGACCUUATT against NINJ1: inactive: -0.061. Next, GCAAUAUCCAAUUGUUAUATT against L2HGDH: inactive: -0.346; GCUAUGACUUCACACCUAUTT against HBP1: inactive: -0.117.

Regarding GGGAUGGACGAAUUACGGUTT against CABP4, the median seed-adjusted z-score was inactive: 0.146. The same measure for CGGAGUUCAUAAUGAAUAATT against BCL2A1: inactive: 0.0557; for GAAUGACCAAGAAUGUAGATT against DUOX2: inactive: 0.525. The same measure for UCAUGAGCAUCGACCGAUATT against SSTR2: inactive: -0.162; for CAGAGGCCGUUGGUACUUATT against STAT4: inactive: 0.734; for GCAAUACGGAAGUAAUGUUTT against DDX5: inactive: 0.891.

As to CGCUGAUACUAACAAUUGATT against AOX1, the median seed-adjusted z-score was inactive: -0.0717.

Consider CUGGCUACGUGAAUGUGCATT against ZDHHC12, for which the median seed-adjusted z-score is inactive: -0.0312. With CCAUUGUCAUUUCAACAGATT against IMPG1, the median seed-adjusted z-score is inactive: -0.252. The same measure for CGACGAUUGAAAGUGUUGATT against SERPINB12: inactive: -0.525. Next, GAAGAACAACUAUAAGCAUTT against POU1F1: inactive: 0.5; CCAAUAUGCUAAAUAGGUATT against GRIN2B: inactive: 0.0402; CCAGGAGCGAUAACAGUAATT against DAZAP1: inactive: 0. For the sequence GGAAUACCAACUUCAGAAATT against GNG12, the median seed-adjusted z-score was inactive: 0.331. As for CUGUUAAGAUUGUGGAAGATT against AKAP14, the median seed-adjusted z-score is inactive: 0.136.

As to GCUAAUGAAGAAUACCAUUTT against MTHFD2, the median seed-adjusted z-score is inactive: -0.146. In the case of GGGCCGAUGUUCUCAGGAATT against TK1, the median seed-adjusted z-score was inactive: -0.0562.

As for GGGAUAUAUUGACUUUGAATT against PCDHA4, the median seed-adjusted z-score was inactive: -0.268. The same measure for AAUCAUCUGUUUUUAAACATT against RABL2B: inactive: 0.454; for GGGACGAUAUUUUAUGCAUTT against AHRR: inactive: -0.636; for UAUUGAUUCAGCAUACUUATT against AKR1CL1: inactive: 0.488. The same measure for CUAGGUAUAUGGACUUAAATT against MAPK6: inactive: -0.156. The same measure for GGAUGAACAUUUUAGGAUUTT against SLC1A4: inactive: 0.209; for CACUGUAACUUGCAGGUUUTT against RDH10: inactive: -0.28; for GGAUUCAUGUUGUCUACAATT against ADAMTS3: inactive: 0. In the case of GAACGAAAGAUCAUAGAAUTT against ITSN1, the median seed-adjusted z-score is inactive: 0.00218.

Turning to CAAGAUGUAUGGUGAGUAUTT against FGD1, the median seed-adjusted z-score is inactive: 0.414.

For GAUUGUCAAUGAACAGUUUTT against ACADVL, the median seed-adjusted z-score is inactive: -0.476. Turning to GCAAGCUGUAGAACACGUATT against ADRBK2, the median seed-adjusted z-score is inactive: 0.148. With CAUAUGAUCCAGACAAGAATT against ZNF425, the median seed-adjusted z-score is inactive: 0.0841. The same measure for CUAGAGCUCUACUUACAGATT against GSTO1: inactive: 0.188. The same measure for CAUCUUCUUUAUUCUAGUUTT against SLC6A9: inactive: 0.241; for GCAUCAGGUGAACAUCAAATT against TRIM16: inactive: 0.345.

GCCUAUUCAGAACACCAAUTT against TBP: the median seed-adjusted z-score is active: -1.25. Next, CCAACAUUGUCGUCCGCGATT against CLDN5: inactive: 0; GGCUGUACAUCGAUAGCUATT against PGM1: inactive: 0.136.

Turning to CGAGUCCUGUGGUUAUGAATT against ANKS1A, the median seed-adjusted z-score is inactive: -0.0165. GUUGCAAACUUAUCGAGGATT against CCT2: the median seed-adjusted z-score is inactive: -0.0508. Next, GAGGAAUUAUGACUACUAUTT against BPNT1: inactive: 0.0844; UGCGCAACCUUAAGAACAATT against PRAF2: inactive: -0.326; GCUUGACUGUGAGUGUACATT against RAD54B: inactive: -0.257. The same measure for GGUGUCAACUCGUUCCAGATT against DPYSL5: inactive: 0.0624; for GCCUGGAGAGUUCACUGGATT against APBB3: inactive: -0.299.

Consider ACACUCUCGCAGACCCAUUTT against HIF3A, for which the median seed-adjusted z-score was inactive: -0.0855.

As to CUUUAGCCGCAAACCCAUATT against ZNF772, the median seed-adjusted z-score is inactive: 0.817. Next, ACCAGCGCAUGGACAGUUATT against SOX2: inactive: 0.0559. The same measure for CGGCCUUCAUCGCAGUACATT against SLC7A5: inactive: 0.00397; for GAAAGAUUUCUGAAUCGUATT against B3GALTL: inactive: -0.259; for GGCUACUAGAUGCUCCUGATT against ZMAT5: inactive: 0.292. Regarding GAAUCGAUUUUGAUAUCGATT against ATMIN, the median seed-adjusted z-score was inactive: -0.55. The same measure for AGUCAAAUGUAAUCCGAAATT against ZBTB48: inactive: 0.0461. For the sequence GUAUGUUGAAGCAAUUAAATT against CDKL4, the median seed-adjusted z-score is inactive: 0.13.

Regarding CCUUAACACCUGCAACCGATT against GRHPR, the median seed-adjusted z-score was inactive: 0.475.

CAAUAGUACCUCACCGGAATT against SLC28A2: the median seed-adjusted z-score is inactive: -0.076. Next, GAACUCCAGAGAUCAAUAATT against IL7R: inactive: 0; UCUACAACAUGGUAGUGCATT against NMUR1: inactive: -0.265.

Values taken from PubChem BioAssay AID1347426 (Functional Genomics Laboratory (NCATS/FGL), 2020).
